Data reported in the supplement of paper PMC10849652.
The other results are listed elsewhere or left out.

Chains of the proteins cited; added tags and fusions are not shown. Lines headed by an entry give the natural chain unless they say otherwise; changes in a name come on top.
UniProt Q03154: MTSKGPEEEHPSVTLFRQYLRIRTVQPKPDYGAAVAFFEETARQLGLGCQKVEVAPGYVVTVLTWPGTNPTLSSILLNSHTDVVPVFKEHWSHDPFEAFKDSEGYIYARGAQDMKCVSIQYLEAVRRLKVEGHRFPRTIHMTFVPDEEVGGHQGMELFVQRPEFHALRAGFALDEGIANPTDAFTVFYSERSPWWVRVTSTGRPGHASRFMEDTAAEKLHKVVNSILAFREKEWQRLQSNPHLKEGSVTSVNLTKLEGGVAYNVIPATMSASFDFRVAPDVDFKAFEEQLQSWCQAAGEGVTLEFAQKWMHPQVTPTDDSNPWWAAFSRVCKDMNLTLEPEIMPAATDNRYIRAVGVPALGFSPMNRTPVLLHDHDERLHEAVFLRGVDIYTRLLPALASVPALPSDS
UniProt P07311: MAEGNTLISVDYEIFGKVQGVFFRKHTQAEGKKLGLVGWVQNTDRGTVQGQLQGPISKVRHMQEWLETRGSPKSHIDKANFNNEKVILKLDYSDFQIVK
UniProt P33121: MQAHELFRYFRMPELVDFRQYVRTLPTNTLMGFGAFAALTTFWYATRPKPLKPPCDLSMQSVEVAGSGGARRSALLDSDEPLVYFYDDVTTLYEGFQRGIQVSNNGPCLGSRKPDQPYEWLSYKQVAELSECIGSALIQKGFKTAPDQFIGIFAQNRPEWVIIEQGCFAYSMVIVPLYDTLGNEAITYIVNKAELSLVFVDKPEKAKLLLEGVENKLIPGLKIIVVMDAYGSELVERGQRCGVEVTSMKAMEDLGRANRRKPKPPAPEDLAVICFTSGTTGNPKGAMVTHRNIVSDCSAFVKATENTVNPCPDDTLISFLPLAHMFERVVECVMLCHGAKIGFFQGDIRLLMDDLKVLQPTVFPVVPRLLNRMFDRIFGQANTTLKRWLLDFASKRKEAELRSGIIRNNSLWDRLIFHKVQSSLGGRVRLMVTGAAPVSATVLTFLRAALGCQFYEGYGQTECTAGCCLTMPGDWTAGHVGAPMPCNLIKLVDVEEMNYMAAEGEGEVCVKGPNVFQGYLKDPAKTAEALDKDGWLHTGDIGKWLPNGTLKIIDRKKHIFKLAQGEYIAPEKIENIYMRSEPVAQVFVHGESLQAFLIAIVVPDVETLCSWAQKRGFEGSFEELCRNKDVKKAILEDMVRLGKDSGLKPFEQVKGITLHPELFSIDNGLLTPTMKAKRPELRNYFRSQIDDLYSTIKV
UniProt Q9Y305: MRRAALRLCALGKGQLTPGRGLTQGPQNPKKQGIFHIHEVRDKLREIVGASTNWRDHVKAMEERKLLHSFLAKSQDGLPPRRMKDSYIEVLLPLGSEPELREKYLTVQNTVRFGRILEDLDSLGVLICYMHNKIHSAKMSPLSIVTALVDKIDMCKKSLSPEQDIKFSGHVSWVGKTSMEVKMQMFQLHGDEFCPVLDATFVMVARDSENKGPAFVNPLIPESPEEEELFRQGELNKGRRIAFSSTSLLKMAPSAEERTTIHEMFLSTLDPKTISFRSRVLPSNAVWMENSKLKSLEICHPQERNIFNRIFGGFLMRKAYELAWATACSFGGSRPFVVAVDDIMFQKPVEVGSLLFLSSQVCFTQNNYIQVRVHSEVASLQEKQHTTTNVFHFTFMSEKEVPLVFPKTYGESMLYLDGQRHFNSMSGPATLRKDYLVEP
UniProt P52594: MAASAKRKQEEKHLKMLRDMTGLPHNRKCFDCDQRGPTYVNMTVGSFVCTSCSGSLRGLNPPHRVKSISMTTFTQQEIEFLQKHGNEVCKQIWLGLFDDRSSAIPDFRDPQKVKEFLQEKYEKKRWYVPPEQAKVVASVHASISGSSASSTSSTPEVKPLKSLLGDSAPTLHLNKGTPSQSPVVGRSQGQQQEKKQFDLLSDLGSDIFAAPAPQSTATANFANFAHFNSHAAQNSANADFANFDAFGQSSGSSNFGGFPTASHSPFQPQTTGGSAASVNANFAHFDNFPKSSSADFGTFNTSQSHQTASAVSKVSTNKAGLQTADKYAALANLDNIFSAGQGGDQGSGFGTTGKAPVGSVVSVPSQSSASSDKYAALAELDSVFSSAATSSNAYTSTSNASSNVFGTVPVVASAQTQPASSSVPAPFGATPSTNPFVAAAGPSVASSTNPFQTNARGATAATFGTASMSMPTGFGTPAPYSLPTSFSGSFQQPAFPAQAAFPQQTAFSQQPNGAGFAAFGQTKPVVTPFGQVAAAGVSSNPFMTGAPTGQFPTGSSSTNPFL
UniProt P00813: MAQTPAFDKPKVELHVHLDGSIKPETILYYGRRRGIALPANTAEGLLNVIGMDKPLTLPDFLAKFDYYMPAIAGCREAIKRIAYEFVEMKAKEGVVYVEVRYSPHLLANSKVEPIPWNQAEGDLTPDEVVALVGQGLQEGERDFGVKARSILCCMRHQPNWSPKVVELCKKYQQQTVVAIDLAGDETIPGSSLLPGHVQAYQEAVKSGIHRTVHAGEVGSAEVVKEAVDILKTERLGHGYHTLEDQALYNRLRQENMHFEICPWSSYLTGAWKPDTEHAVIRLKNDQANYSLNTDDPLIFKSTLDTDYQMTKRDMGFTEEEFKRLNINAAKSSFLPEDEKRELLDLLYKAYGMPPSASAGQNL
UniProt O14672: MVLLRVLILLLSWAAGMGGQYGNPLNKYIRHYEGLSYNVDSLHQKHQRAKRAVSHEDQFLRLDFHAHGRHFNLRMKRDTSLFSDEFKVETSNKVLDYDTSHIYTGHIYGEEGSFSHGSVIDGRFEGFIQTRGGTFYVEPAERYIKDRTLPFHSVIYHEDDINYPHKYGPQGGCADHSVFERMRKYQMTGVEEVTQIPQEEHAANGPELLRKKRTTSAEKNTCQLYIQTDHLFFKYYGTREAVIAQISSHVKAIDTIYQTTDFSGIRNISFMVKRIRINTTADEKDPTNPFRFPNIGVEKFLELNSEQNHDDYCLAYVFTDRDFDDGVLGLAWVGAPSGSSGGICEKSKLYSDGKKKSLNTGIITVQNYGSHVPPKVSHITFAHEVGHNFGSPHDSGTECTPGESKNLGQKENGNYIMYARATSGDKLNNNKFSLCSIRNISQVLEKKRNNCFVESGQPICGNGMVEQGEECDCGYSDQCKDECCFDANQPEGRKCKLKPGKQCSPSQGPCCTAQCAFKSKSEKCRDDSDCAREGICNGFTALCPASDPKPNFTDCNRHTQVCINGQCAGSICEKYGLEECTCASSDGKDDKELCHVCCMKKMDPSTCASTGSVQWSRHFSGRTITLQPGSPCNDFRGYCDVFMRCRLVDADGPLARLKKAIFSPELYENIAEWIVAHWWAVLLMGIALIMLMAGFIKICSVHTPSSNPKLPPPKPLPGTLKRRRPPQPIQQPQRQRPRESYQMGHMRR
UniProt Q53FZ2: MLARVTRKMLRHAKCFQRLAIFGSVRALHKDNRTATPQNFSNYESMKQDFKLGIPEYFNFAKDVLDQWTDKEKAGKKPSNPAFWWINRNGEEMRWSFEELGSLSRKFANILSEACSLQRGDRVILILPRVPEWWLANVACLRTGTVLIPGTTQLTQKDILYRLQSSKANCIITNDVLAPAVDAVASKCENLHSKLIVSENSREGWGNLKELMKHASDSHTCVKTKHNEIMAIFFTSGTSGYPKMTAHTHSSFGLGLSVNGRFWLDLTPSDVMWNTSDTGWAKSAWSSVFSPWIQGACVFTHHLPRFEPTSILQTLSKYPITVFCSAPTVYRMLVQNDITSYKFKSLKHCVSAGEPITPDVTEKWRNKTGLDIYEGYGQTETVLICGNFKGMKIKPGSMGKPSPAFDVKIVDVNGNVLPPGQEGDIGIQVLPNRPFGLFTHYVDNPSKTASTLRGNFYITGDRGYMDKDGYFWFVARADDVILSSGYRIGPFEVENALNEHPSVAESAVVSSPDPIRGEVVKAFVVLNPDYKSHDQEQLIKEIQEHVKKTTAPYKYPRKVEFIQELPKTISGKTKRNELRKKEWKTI
UniProt P11766: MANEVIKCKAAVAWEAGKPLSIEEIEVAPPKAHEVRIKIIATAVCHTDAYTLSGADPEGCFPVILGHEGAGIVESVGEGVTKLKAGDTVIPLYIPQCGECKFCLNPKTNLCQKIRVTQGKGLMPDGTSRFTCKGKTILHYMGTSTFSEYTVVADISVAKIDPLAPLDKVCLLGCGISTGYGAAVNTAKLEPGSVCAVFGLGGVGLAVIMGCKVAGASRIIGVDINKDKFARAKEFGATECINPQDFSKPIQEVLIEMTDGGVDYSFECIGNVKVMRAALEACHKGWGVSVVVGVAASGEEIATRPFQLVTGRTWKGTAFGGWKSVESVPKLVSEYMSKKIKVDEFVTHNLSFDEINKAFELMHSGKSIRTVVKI
UniProt Q9H2P0: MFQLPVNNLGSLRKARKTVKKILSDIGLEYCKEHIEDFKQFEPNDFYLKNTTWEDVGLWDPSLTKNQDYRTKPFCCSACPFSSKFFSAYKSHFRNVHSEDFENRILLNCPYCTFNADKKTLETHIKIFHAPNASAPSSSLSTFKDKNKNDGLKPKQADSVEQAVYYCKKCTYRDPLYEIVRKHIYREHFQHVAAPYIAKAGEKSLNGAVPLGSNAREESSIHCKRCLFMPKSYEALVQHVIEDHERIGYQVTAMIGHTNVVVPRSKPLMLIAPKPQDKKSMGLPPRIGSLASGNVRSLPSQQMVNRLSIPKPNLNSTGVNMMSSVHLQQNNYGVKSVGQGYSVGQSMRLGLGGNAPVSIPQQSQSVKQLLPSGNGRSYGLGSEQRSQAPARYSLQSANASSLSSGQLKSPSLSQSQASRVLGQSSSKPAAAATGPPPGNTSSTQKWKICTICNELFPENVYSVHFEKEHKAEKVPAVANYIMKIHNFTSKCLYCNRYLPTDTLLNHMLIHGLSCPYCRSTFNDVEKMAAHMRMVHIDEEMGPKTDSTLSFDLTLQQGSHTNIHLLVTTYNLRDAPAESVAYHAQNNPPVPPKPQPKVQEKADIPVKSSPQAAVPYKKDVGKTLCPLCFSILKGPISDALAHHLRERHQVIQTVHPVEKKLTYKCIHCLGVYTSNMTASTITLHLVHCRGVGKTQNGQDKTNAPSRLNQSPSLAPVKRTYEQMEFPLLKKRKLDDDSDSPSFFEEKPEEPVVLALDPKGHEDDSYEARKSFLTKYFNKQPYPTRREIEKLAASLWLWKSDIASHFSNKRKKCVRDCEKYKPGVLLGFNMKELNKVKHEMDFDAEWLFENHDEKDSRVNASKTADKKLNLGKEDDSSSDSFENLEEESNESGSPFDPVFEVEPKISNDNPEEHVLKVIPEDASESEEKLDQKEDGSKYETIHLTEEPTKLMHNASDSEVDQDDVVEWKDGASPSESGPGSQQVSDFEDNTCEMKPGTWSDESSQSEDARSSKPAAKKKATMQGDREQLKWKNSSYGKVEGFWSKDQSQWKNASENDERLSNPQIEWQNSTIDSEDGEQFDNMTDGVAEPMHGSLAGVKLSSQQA
UniProt P35611: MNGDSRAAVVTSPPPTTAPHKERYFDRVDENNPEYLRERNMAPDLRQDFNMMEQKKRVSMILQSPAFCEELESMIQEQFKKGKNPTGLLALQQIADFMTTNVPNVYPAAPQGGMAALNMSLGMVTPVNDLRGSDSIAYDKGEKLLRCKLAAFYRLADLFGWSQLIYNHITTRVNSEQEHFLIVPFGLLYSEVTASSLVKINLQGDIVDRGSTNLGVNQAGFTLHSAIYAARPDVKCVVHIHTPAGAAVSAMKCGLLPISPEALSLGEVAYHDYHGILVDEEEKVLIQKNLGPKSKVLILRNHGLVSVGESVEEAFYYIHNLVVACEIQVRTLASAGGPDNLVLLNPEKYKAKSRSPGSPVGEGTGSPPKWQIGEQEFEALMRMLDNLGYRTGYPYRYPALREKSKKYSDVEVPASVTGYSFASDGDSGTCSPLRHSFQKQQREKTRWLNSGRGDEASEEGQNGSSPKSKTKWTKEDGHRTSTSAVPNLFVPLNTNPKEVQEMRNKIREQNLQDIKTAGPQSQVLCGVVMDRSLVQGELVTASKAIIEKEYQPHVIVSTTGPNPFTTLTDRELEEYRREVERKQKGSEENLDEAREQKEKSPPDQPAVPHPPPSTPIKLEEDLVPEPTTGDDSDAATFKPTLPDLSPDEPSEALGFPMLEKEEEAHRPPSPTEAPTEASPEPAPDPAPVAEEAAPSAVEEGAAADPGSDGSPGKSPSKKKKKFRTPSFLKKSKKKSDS
UniProt P14550: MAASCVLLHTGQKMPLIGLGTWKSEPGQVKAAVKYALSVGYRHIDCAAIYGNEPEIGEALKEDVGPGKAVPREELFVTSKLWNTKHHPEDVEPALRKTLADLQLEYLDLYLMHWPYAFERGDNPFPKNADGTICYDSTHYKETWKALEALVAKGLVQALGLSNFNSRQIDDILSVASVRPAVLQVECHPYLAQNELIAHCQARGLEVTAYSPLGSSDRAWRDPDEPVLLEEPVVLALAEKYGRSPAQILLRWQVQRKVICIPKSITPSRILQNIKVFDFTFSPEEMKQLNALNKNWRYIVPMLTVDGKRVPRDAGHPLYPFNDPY
UniProt P24666: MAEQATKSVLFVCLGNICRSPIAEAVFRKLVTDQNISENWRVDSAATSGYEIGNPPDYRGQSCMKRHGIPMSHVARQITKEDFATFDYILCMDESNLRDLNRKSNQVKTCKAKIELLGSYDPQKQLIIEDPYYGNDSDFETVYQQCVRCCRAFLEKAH

What follows are targets tested with C1COCCN1CCN2C3=CC=CC=C3N=C2NC(=O)C4=CC(=CC=C4)[N+](=O)[O-] [IRAK-1-4 Inhibitor I] (assay: log2 fold change, soluble protein after heating vs DMSO (PISA); higher = thermal stabilisation; K562 lysate, 10 uM; active = over 0.2 and 3.5 SD of the protein, either way, in both replicates (recomputed)).
In short: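 To prepare the extract, K562 pellets were dounce-homogenised in PBS pH 7.4 with 1 mM MgCl2, giving crude material at 1 mg/mL protein. This was treated with 10 μM compound for 30 min, then heated in aliquots for 3 min over 48°C-58°C before pooling and addition of NP-40 to 0.5% at 4°C. Centrifugation at 21,000xg for 90 min left soluble protein in the supernatant, which TMTpro 16plex LC-MS/MS quantified with equalised channel sums. Results are log-two fold changes in thermal stability compared with solvent controls, from duplicates.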

log2 fold change, inactive:
AIP (UniProt O00170) -0.012, ACY1 (UniProt Q03154) -0.008, ACTG1 (UniProt I3L4N8) -0.013, ACYP1 (UniProt P07311) 0.013, ADIPOR2 (UniProt Q86V24) 0.069, ACSL1 (UniProt P33121) 0.022, ACOT9 isoform 4 (UniProt Q9Y305) -0.031, AGFG1 isoform 4 (UniProt P52594) 0.02, ADA (UniProt P00813) 0.044, ADAM10 (UniProt O14672) 0.003, AFF4 (UniProt Q9UHB7) -0.031, AKNA (UniProt Q7Z591) 0.037, ACSM3 (UniProt Q53FZ2) 0.005, ADH5 (UniProt P11766) -0.005, ADNP (UniProt Q9H2P0) 0.006, AKR1C3 (UniProt P42330) -0.017, ADD1 isoform 3 (UniProt P35611) -0.021, ADO (UniProt Q96SZ5) 0.011, ACSL4 (UniProt O60488) 0.04, AKR1A1 (UniProt P14550) -0.006, ACP1 isoform 2 (UniProt P24666) 0.055, ACTR1A (UniProt P61163) 0.018, AKAP12 (UniProt Q02952) 0.047
